Laboratory results reported in publication PMC10454111.

Assays:
[1] = molecular target: Nluc-OsMKK6-C (amino acids 71-355 of OsMKK6) (rice (Oryza sativa)) (UniProt Q5QN75); assay: split reporter; firefly luciferase complementation imaging (LCI) in N. benthamiana leaves; Nluc and Cluc fusions co-infiltrated; luminescence at 48 h after infiltration
[2] = molecular target: Nluc-OsMKK6 (rice (Oryza sativa)) (UniProt Q5QN75); assay: as above
[3] = molecular target: Nluc-OsMKK6-N (amino acids 1-70 of OsMKK6) (rice (Oryza sativa)) (UniProt Q5QN75); assay: as above
[4] = molecular target: Nluc-OsMKK6m (D69N) (rice (Oryza sativa)) (UniProt Q5QN75); assay: as above
[5] = molecular target: Nluc-OsMKK6u (D69E) (rice (Oryza sativa)) (UniProt Q5QN75); assay: as above
[6] = molecular target: Nluc-OsMKK6n (D69Q) (rice (Oryza sativa)) (UniProt Q5QN75); assay: as above
[7] = molecular target: GFP-tagged OsMKK6 (35S:OsMKK6-GFP) (rice (Oryza sativa)) (UniProt Q5QN75); assay: co-IP; GFP-tagged OsMKK6 or GFP co-expressed with OsMPK4-FLAG in N. benthamiana leaves; lysate (50 mM Tris-HCl pH 7.4, 150 mM NaCl, 1 mM EDTA, 10% glycerol, 1% Triton X-100); anti-GFP magnetic beads; blots with anti-FLAG and anti-GFP

Row | Substance | binding [1] | binding [2] | binding [3] | binding [4] | binding [5] | binding [6] | binding [7]
1 | Cluc-OsMPK4 (from UniProt Q336X9) (enzyme) | no binding | binds | binds | no binding | no binding | no binding | 
2 | FLAG-tagged OsMPK4 (Ubi:OsMPK4-FLAG) (from UniProt Q336X9) (enzyme) |  |  |  |  |  |  | binds

No constants are given. Whether binding was seen depends on the method and setting. Binding seen in cells or lysates may run through a third protein. For some of these results: A result given as binding can be weak or reduced; the word gives no strength.
